Test results taken from the supplement of paper PMC10849652.
The list shows a part of the results.

Sequences of proteins named here, by UniProt entry; tags and fusion partners are left off. A change or cut given only in a name is not applied to a line headed by its entry.
UniProt Q8IWV7: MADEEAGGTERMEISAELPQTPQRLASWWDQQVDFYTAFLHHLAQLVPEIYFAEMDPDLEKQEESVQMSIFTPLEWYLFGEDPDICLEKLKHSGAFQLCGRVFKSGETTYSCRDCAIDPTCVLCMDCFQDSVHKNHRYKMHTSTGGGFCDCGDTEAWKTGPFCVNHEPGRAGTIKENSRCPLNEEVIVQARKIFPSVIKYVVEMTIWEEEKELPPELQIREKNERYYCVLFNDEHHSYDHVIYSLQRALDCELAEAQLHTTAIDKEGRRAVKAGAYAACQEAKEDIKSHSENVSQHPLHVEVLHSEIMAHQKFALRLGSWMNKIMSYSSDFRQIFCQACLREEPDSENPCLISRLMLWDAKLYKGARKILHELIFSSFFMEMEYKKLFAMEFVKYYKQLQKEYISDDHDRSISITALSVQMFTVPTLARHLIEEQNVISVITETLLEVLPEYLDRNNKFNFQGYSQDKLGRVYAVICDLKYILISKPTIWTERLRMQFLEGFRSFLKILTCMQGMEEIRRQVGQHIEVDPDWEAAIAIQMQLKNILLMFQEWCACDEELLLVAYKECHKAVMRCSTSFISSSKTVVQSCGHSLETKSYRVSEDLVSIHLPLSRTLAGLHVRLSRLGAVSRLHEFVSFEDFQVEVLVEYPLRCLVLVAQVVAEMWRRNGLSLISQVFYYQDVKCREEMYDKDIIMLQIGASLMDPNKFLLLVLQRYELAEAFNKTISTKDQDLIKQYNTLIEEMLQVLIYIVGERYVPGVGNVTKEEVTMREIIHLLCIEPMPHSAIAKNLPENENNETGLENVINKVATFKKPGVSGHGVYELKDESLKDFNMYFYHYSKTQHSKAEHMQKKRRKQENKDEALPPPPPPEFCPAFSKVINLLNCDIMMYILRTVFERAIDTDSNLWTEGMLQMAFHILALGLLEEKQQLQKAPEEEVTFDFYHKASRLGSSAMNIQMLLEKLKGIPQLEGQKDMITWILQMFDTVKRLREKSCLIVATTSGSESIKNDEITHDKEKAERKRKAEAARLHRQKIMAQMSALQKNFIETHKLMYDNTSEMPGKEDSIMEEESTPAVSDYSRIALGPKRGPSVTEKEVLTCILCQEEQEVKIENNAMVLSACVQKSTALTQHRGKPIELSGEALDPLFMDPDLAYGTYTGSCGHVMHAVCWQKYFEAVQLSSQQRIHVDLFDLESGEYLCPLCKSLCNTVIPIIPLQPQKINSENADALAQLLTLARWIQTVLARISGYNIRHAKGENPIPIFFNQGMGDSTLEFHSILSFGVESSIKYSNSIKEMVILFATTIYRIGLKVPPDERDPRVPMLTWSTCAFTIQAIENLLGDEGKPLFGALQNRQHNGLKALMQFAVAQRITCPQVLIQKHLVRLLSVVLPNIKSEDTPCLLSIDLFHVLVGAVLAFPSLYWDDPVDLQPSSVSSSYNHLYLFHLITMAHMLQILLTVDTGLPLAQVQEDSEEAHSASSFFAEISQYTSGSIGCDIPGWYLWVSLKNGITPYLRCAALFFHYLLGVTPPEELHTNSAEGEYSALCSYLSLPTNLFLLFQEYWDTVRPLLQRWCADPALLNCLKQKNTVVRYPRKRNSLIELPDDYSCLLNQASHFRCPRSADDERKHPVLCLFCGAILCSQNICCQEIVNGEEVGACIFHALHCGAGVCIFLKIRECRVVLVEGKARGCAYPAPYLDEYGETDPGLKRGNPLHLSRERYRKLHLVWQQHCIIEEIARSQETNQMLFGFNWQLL
UniProt O15042: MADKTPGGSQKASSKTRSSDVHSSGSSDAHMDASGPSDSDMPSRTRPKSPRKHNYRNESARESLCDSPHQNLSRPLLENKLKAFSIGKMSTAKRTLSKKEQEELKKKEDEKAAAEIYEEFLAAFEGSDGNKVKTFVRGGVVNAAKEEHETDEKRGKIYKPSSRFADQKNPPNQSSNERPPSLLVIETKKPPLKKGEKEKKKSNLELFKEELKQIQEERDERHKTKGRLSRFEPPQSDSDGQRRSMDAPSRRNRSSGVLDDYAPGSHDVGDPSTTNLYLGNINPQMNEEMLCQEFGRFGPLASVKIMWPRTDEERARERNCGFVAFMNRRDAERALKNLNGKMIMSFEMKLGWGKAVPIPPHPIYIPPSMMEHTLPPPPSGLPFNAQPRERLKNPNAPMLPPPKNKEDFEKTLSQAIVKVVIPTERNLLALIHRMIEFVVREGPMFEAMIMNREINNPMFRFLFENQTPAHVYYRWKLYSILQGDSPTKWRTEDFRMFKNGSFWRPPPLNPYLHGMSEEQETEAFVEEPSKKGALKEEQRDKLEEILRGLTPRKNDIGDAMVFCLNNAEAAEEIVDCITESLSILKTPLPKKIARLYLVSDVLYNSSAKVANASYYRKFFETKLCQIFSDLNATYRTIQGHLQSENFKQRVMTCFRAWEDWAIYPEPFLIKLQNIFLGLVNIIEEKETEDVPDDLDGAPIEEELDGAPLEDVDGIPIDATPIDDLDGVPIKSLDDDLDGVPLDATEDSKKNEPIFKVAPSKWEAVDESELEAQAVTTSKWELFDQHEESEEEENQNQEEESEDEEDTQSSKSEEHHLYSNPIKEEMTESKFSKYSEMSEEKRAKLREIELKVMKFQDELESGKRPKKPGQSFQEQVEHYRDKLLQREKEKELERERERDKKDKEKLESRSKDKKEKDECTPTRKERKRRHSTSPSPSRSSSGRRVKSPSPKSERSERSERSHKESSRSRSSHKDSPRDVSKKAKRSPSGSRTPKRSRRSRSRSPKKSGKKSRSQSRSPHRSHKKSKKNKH
UniProt Q9UMX0, whole entry, looked up: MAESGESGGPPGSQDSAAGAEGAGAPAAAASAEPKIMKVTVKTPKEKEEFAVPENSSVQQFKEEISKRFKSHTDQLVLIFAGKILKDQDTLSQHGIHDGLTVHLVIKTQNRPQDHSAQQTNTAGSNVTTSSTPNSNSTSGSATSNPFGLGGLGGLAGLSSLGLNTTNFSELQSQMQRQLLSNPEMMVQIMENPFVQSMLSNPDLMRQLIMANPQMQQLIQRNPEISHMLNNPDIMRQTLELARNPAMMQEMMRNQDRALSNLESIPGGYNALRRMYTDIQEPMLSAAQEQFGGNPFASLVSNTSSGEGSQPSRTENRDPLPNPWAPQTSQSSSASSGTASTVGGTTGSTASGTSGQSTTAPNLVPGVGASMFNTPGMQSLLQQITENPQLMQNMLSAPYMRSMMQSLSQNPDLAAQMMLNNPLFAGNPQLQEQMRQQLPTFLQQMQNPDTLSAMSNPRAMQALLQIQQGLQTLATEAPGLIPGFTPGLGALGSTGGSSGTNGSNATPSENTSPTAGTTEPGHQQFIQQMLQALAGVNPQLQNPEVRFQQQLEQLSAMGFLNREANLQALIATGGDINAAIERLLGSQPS
UniProt P60604: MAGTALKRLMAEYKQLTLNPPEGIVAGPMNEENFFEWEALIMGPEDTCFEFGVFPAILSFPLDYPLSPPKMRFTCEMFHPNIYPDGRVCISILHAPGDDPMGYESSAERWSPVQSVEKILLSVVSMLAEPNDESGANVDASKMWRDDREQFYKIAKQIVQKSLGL
UniProt O14562: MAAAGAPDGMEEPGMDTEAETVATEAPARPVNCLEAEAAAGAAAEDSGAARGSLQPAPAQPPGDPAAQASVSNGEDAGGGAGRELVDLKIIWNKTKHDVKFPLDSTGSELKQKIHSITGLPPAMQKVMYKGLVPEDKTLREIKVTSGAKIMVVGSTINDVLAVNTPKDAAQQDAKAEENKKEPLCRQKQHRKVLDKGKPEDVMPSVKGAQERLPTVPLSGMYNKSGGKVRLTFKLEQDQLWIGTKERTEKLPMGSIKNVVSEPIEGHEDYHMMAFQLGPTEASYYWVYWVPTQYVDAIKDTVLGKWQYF
UniProt Q15819: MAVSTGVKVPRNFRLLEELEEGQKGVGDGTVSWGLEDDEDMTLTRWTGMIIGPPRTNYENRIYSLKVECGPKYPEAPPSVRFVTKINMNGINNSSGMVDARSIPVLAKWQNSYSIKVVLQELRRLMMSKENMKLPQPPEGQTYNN
UniProt Q5TAX3: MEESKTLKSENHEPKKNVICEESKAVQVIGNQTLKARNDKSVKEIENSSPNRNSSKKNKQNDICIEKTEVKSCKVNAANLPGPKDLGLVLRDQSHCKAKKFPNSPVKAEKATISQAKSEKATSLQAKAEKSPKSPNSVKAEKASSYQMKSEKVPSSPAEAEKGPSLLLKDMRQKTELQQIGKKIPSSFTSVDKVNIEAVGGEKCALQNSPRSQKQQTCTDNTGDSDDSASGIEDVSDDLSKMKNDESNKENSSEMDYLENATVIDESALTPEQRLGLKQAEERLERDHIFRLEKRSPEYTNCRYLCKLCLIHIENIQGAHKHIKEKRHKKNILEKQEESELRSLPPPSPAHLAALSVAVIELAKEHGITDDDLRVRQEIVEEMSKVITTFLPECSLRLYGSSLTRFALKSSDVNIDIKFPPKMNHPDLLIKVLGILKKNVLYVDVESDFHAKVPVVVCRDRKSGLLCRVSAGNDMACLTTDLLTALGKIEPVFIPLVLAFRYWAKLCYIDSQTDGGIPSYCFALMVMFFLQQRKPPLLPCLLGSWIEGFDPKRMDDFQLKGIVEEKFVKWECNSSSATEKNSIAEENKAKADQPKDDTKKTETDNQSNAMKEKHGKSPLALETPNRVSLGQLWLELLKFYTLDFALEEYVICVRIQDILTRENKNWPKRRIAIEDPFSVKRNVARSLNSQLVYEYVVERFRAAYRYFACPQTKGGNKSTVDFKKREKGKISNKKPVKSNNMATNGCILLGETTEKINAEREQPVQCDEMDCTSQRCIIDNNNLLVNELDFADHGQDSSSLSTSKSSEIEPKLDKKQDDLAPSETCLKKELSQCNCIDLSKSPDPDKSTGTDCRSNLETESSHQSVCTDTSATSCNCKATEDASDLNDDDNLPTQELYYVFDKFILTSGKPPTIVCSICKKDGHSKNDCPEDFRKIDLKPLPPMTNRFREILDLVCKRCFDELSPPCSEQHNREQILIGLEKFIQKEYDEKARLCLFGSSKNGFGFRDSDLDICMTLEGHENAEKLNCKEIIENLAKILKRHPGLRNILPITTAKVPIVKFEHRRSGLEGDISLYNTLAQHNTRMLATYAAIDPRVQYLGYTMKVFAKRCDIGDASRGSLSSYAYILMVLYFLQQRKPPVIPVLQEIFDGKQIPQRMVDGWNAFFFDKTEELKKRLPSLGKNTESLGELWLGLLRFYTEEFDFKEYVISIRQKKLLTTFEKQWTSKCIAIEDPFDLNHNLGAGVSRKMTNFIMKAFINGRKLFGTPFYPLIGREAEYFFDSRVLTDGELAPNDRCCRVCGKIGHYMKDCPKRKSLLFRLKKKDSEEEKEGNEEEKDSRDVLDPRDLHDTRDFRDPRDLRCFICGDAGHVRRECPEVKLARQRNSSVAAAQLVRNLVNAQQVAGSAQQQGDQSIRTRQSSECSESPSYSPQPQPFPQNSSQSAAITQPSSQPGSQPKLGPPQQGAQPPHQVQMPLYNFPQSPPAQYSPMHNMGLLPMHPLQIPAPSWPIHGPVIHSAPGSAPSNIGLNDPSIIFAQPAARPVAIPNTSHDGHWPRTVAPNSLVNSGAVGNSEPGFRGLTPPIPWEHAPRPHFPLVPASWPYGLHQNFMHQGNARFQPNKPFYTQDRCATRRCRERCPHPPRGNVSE
UniProt Q9H6E5: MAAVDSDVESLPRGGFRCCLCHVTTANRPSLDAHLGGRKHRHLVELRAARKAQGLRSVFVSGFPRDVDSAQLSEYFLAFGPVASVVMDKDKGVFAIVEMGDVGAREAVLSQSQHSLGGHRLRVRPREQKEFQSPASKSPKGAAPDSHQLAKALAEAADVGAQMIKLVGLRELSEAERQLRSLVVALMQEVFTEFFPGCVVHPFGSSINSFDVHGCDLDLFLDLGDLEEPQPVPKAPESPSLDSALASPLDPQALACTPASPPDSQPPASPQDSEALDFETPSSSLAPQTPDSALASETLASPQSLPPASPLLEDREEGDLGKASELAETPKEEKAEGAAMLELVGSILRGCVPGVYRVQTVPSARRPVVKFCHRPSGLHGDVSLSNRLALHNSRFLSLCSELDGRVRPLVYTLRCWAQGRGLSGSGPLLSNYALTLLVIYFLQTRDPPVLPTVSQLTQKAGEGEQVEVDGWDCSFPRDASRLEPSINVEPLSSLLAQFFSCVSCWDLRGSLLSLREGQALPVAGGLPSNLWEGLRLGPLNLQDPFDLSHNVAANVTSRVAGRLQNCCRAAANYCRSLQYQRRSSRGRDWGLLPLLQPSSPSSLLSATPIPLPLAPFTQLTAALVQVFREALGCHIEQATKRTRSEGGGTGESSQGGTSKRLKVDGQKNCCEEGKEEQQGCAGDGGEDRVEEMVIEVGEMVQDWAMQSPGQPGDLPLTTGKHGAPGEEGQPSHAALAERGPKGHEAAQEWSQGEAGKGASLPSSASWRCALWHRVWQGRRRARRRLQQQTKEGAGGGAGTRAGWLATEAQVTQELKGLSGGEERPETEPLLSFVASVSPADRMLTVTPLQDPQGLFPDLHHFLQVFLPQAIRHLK

Legend:
Experiment in all cases: log2 fold change, soluble protein after heating vs DMSO (PISA); higher = thermal stabilisation; K562 lysate, 10 uM; active = over 0.2 and 3.5 SD of the protein, either way, in both replicates (recomputed)
erlotinib = compound: C#Cc1cccc(Nc2ncnc3cc(OCCOC)c(OCCOC)cc23)c1 [erlotinib]
In short: (§1)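 Pellets of K562 cells were dounce-homogenised in PBS pH 7.4 with 1 mM MgCl2, and the crude extract was held at 1 mg/mL protein for a 30 min treatment with 10 μM compound. Aliquots were heated for 3 min over 48°C-58°C and pooled before NP-40 was added to 0.5% at 4°C. The supernatant from 21,000xg for 90 min was quantified by TMTpro 16plex LC-MS/MS with channel sums equalised. Values are reported from duplicates as log-two fold change in thermal stability relative to solvent controls.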

[1] = compound: C/C(=N\NC(=O)C1=CC(=CC=C1)S(=O)(=O)N2CCOCC2)/C3=C(C=CC(=C3)Cl)O
In short: as §1

[2] = compound: C1=CC(=CC=C1C2=NC3=C(N2)C=C(C=C3)C(=O)N)OC4=CC=C(C=C4)Cl
In short: as §1

[3] = compound: C1=CC2=C(C=CC(=C2)/C=C\3/C(=O)NC(=NCC4=CC=CS4)S3)N=C1
In short: as §1

[4] = compound: C1=CC2=NC=CN=C2C=C1/C=C/3\C(=O)NC(=O)S3
In short: as §1

[5] = compound: C1=CC=C(C=C1)C2=NC(=C(N2)C3=CC=NC=C3)C4=CC(=C(C=C4)Cl)O
In short: as §1

[6] = compound: C1=CC=C2C(=C1)C3=NNC4=CC=CC(=C43)C2=O
In short: as §1

[7] = compound: C1CCN(C1)C(=O)NC2=CC=CC(=C2)NC3=NC=C(C(=N3)NCCC4=CN=CN4)Br
In short: as §1

[8] = compound: C1CN(CCC1(CC2=CC=C(C=C2)Cl)N)C3=NC=NC4=C3C=CN4
In short: as §1

IRAK-1-4 Inhibitor I = compound: C1COCCN1CCN2C3=CC=CC=C3N=C2NC(=O)C4=CC(=CC=C4)[N+](=O)[O-] [IRAK-1-4 Inhibitor I]
In short: as §1

Measured: log2 fold change

TXNRD2 (UniProt Q9NNW7)
inactive: erlotinib -0.01 | [1] -0.085 | [2] 0.049 | [3] 0.008 | [4] -0.025 | [5] 0.009 | [6] -0.031 | [7] 0.017 | [8] 0.044 | IRAK-1-4 Inhibitor I -0.007

UBL4A (UniProt P11441)
inactive: erlotinib -0.04 | [1] 0.014 | [2] -0.069 | [3] 0.005 | [4] 0.087 | [5] 0.021 | [6] 0.04 | [7] 0.024 | [8] -0.028 | IRAK-1-4 Inhibitor I -0.042

U2AF2 (UniProt P26368)
inactive: erlotinib 0.014 | [1] 0.065 | [2] -0.051 | [3] -0.005 | [4] -0.058 | [5] 0.025 | [6] 0.011 | [7] 0.016 | [8] 0.003 | IRAK-1-4 Inhibitor I -0.011

TXNDC12 (UniProt O95881)
inactive: erlotinib -0.03 | [1] -0.034 | [2] -0.021 | [3] -0.012 | [4] 0.03 | [5] -0.008 | [6] 0.033 | [7] 0.025 | [8] -0.035 | IRAK-1-4 Inhibitor I 0.001

UBE2M (UniProt P61081)
inactive: erlotinib -0.009 | [1] 0.074 | [2] -0.017 | [3] 0.01 | [4] -0.013 | [5] 0.005 | [6] 0.004 | [7] 0 | [8] 0.027 | IRAK-1-4 Inhibitor I 0.006

UBR1 (UniProt Q8IWV7)
inactive: erlotinib 0.01 | [1] 0.058 | [2] -0.055 | [3] -0.002 | [4] 0.026 | [5] 0.015 | [6] -0.016 | [7] -0.047 | [8] 0.008 | IRAK-1-4 Inhibitor I 0.002

UBR2 isoform 4 (UniProt Q8IWV8)
inactive: erlotinib 0.024 | [1] 0.034 | [2] 0.021 | [3] 0.029 | [4] -0.002 | [5] -0.031 | [6] 0.012 | [7] -0.031 | [8] -0.004 | IRAK-1-4 Inhibitor I 0.002

TUBA3C (UniProt P0DPH7)
inactive: erlotinib 0.03 | [1] -0.605 | [2] 0.039 | [3] -0.029 | [4] 0.023 | [5] -0.023 | [6] -0.01 | [7] -0.011 | [8] 0.036 | IRAK-1-4 Inhibitor I 0.037

U2SURP (UniProt O15042)
inactive: erlotinib -0.004 | [1] -0.018 | [2] 0.03 | [3] -0.013 | [4] -0.031 | [5] 0.006 | [6] -0.014 | [7] -0.023 | [8] 0.041 | IRAK-1-4 Inhibitor I -0.013

TXLNG (UniProt Q9NUQ3)
inactive: erlotinib -0.029 | [1] -0.076 | [2] 0.018 | [3] 0.004 | [4] -0.029 | [5] -0.001 | [6] 0.03 | [7] 0.019 | [8] -0.001 | IRAK-1-4 Inhibitor I 0

UBXN7 (UniProt O94888)
inactive: erlotinib 0.001 | [1] 0.012 | [2] 0.004 | [3] -0.014 | [4] -0.003 | [5] 0.032 | [6] -0.017 | [7] -0.012 | [8] 0.011 | IRAK-1-4 Inhibitor I 0.016

TUBGCP6 (UniProt Q96RT7)
inactive: erlotinib 0.012 | [1] -0.358 | [2] 0.008 | [3] 0.139 | [4] 0.022 | [5] -0.014 | [6] -0.097 | [7] -0.049 | [8] 0.022 | IRAK-1-4 Inhibitor I 0.132

TUBA1B (UniProt P68363)
inactive: erlotinib 0.031 | [1] -0.022 | [2] 0.009 | [3] -0.018 | [4] 0.006 | [5] -0.013 | [6] -0.018 | [7] 0.009 | [8] 0.02 | IRAK-1-4 Inhibitor I 0.022

UBQLN1 isoform 2 (UniProt Q9UMX0)
inactive: erlotinib -0.004 | [1] 0.183 | [2] -0.185 | [3] 0.123 | [5] 0 | [6] -0.081 | [7] 0.031 | [8] 0.164 | IRAK-1-4 Inhibitor I -0.027

TXNRD1 (UniProt Q16881)
inactive: erlotinib -0.005 | [1] -0.024 | [2] 0.009 | [3] -0.026 | [4] 0.012 | [5] -0.003 | [6] 0.009 | [7] 0.024 | [8] 0.004 | IRAK-1-4 Inhibitor I 0.001

TYMS (UniProt P04818)
inactive: erlotinib 0.016 | [1] 0.041 | [2] 0.011 | [3] -0.032 | [4] 0.032 | [5] -0.026 | [6] 0.019 | [7] 0.035 | [8] -0.004 | IRAK-1-4 Inhibitor I -0.008

UBE2G2 (UniProt P60604)
inactive: erlotinib 0.129 | [1] -0.05 | [2] -0.105 | [3] -0.048 | [5] -0.048 | [6] -0.125 | [7] -0.155 | [8] 0 | IRAK-1-4 Inhibitor I 0.058

TUSC3 isoform 2 (UniProt Q13454)
inactive: erlotinib -0.013 | [1] 0.108 | [2] -0.063 | [3] -0.101 | [4] 0 | [5] -0.012 | [6] -0.046 | [7] -0.012 | [8] 0.053 | IRAK-1-4 Inhibitor I 0.019

UBFD1 (UniProt O14562)
inactive: erlotinib 0.012 | [1] -0.005 | [2] 0.001 | [3] -0.023 | [4] -0.003 | [5] 0.006 | [6] 0 | [7] -0.009 | [8] 0.012 | IRAK-1-4 Inhibitor I 0.015

UBXN2A (UniProt P68543)
inactive: erlotinib -0.029 | [1] -0.017 | [2] 0.082 | [3] 0.058 | [4] -0.108 | [5] 0.028 | [6] -0.176 | IRAK-1-4 Inhibitor I 0.024

UBE2W isoform 3 (UniProt Q96B02)
inactive: erlotinib 0.117 | [1] -0.027 | [2] 0.051 | [3] 0.117 | [4] -0.083 | [6] 0.004

UBE2V2 (UniProt Q15819)
inactive: erlotinib -0.026 | [1] 0.022 | [2] 0.036 | [3] -0.009 | [4] -0.033 | [5] 0.001 | [6] 0.006 | [7] 0.025 | [8] 0.017 | IRAK-1-4 Inhibitor I 0.021

TUBB6 (UniProt K7ES63)
inactive: erlotinib -0.19 | [1] 0.058 | [2] -0.06 | [3] 0.047 | [4] -0.01 | [5] -0.154 | [6] -0.029 | [7] -0.19 | [8] -0.22 | IRAK-1-4 Inhibitor I 0.048

TXN (UniProt P10599)
inactive: erlotinib -0.01 | [1] 0.024 | [2] 0.025 | [3] 0.025 | [4] 0.011 | [5] 0.023 | [6] 0.032 | [7] 0.012 | [8] -0.015 | IRAK-1-4 Inhibitor I 0

UBR4 isoform 4 (UniProt Q5T4S7)
inactive: erlotinib 0.121 | [1] -0.209 | [2] -0.073 | [3] -0.071 | [5] 0.136 | [6] 0.016 | [7] 0.119 | [8] -0.094 | IRAK-1-4 Inhibitor I 0.097

UBLCP1 (UniProt Q8WVY7)
inactive: erlotinib -0.009 | [1] 0.032 | [2] 0.034 | [3] 0.013 | [4] -0.031 | [5] 0.022 | [6] 0.088 | [7] 0.132 | [8] 0.034 | IRAK-1-4 Inhibitor I -0.019

UBE2D3 isoform 3 (UniProt P61077)
inactive: erlotinib 0.012 | [1] -0.002 | [2] 0.016 | [3] -0.031 | [4] -0.025 | [5] 0.03 | [6] -0.003 | [7] -0.035 | [8] 0.06 | IRAK-1-4 Inhibitor I 0.021

TUBB4A (UniProt M0QYM7)
inactive: erlotinib -0.017 | [1] -0.063 | [2] 0.071 | [3] -0.015 | [4] -0.322 | [5] 0.044 | [6] -0.097 | [7] -0.038 | [8] -0.027 | IRAK-1-4 Inhibitor I 0.025

TUT4 (UniProt Q5TAX3)
inactive: erlotinib -0.009 | [1] -0.048 | [2] -0.014 | [3] -0.062 | [4] -0.054 | [5] -0.004 | [6] -0.021 | [7] -0.029 | [8] 0.019 | IRAK-1-4 Inhibitor I 0.023

TUBE1 (UniProt Q9UJT0)
inactive: erlotinib 0.051 | [1] -0.267 | [2] 0.095 | [3] -0.059 | [4] -0.063 | [5] -0.078 | [6] -0.033 | [7] -0.113 | [8] 0.047 | IRAK-1-4 Inhibitor I 0.023

TUT1 (UniProt Q9H6E5)
inactive: erlotinib 0.059 | [1] -0.018 | [2] 0.028 | [3] -0.044 | [4] -0.01 | [5] -0.008 | [6] -0.058 | [7] 0.049 | [8] -0.018 | IRAK-1-4 Inhibitor I 0.012

Quoted at random: two records from the list
TUBE1 (UniProt Q9UJT0)
inactive: erlotinib 0.051 | [1] -0.267 | [2] 0.095 | [3] -0.059 | [4] -0.063 | [5] -0.078 | [6] -0.033 | [7] -0.113 | [8] 0.047 | IRAK-1-4 Inhibitor I 0.023

TUT1 (UniProt Q9H6E5)
inactive: erlotinib 0.059 | [1] -0.018 | [2] 0.028 | [3] -0.044 | [4] -0.01 | [5] -0.008 | [6] -0.058 | [7] 0.049 | [8] -0.018 | IRAK-1-4 Inhibitor I 0.012

More entries.

UCK2 (UniProt Q9BZX2)
inactive: erlotinib 0.011 | [1] 0.002 | [2] 0.025 | [3] -0.022 | [4] -0.07 | [5] -0.001 | [6] 0.072 | [7] -0.02 | [8] -0.015 | IRAK-1-4 Inhibitor I 0.007
